Assay results: ChEMBL document CHEMBL3124800, “HTS followed by NMR based counterscreening. Discovery and optimization of pyrimidones as reversible and competitive inhibitors of xanthine oxidase” (Bioorg Med Chem Lett, 2014)
Converted amounts (≈) assume the structure as drawn.

Experiment: Solubility of the compound in phosphate buffer at pH 7.4

## CC(C)COc1ccc(-c2nc(N)[nH]c(=O)c2Cl)cc1C#N
  solubility: 3.1 µM (≈ 0.988 µg/mL)
